Values from PubChem BioAssay AID1259405 (NCATS, 2018)
Screen: 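Silenced genes that increase secreted GFP made by CHO cells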 (primary screen). Cell system: Chinese hamster CHO-K1 ovary cells with stable secreted eGFP expression. Reagents: single siRNA against mouse genes, 0.8 pmol siRNA per well (2 µl of 400 nM stock). Time to read-out: 3 days. Read-out: 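Percent of the per-plate non-targeting control median for intracellular GFP per well by laser scanning cytometry and for cell viability by ATP luminescence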. Reading the numbers: GFP, % of control: higher = more GFP per well, higher productivity; viability (ATP), % of control: higher = more viable cells (more ATP). Call rule: 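a knock-down is called active if GFP reaches 120% or more of non-targeting control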.
In all, the deposit lists about 50,000 reagents; shown is an unselected part. About 4,000 of all reagents (8%) were called active. 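Mouse siRNA library applied to hamster cells; one well for each siRNA.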 Entries without a mark were called inactive. The numbers tell different reagents against one gene apart.

Tspan6 #1 showed GFP, % of control 98.4; viability (ATP), % of control 85.4.
For Tspan6 #2 the deposit lists GFP, % of control 41.8; viability (ATP), % of control 41.1.
For Tspan6 #3, the entry reads GFP, % of control 87.8; viability (ATP), % of control 112.
Mc1r #1 scored GFP, % of control 56; viability (ATP), % of control 62.6.
Against Mc1r #2, the entry reads GFP, % of control 99.6; viability (ATP), % of control 73.1.
Depletion of Mc1r #3 came out at: GFP, % of control 67.2; viability (ATP), % of control 73.5.
For Hid1 #1, the entry reads GFP, % of control 74.2; viability (ATP), % of control 71.4.
With knock-down of Hid1 #2, the screen gave GFP, % of control 38.2; viability (ATP), % of control 28.9.
For Hid1 #3, the values are GFP, % of control 97.5; viability (ATP), % of control 108.
After knock-down of Tmem169 #1 the results were GFP, % of control 37.5; viability (ATP), % of control 64.8.
After knock-down of Tmem169 #2, the record shows GFP, % of control 58.3; viability (ATP), % of control 58.8.
Tmem169 #3 showed GFP, % of control 90.2; viability (ATP), % of control 81.
For Lims2 #1 the deposit lists GFP, % of control 83.8; viability (ATP), % of control 123.
Lims2 #2 scored GFP, % of control 39.6; viability (ATP), % of control 43.5.
Skap2 #1 showed GFP, % of control 52.1; viability (ATP), % of control 80.4.
Skap2 #2 gave GFP, % of control 45.8; viability (ATP), % of control 37.4.
With knock-down of Skap2 #3, the record shows GFP, % of control 66.2; viability (ATP), % of control 85.2.
For Spmip10 #1, the values are GFP, % of control 88.9; viability (ATP), % of control 96.9.
Against Spmip10 #2 the deposit lists GFP, % of control 55.9; viability (ATP), % of control 65.
Knock-down of Spmip10 #3 came out at: GFP, % of control 89.1; viability (ATP), % of control 73.8.

Reformatted: 5 of the entries above
Tmem169 #2
- GFP, % of control: 58.3
- viability (ATP), % of control: 58.8

Tmem169 #3
- GFP, % of control: 90.2
- viability (ATP), % of control: 81

Lims2 #1
- GFP, % of control: 83.8
- viability (ATP), % of control: 123

Lims2 #2
- GFP, % of control: 39.6
- viability (ATP), % of control: 43.5

Skap2 #1
- GFP, % of control: 52.1
- viability (ATP), % of control: 80.4

Next entries follow:
Silencing of Asnsd1 #1 gave: GFP, % of control 57.8; viability (ATP), % of control 69.9.
For Asnsd1 #2, the entry reads GFP, % of control 104; viability (ATP), % of control 89.6.
Against Asnsd1 #3, the values are GFP, % of control 124 (active); viability (ATP), % of control 130.
Tgfa #1 gave GFP, % of control 60.3; viability (ATP), % of control 93.1.
Tgfa #2 showed GFP, % of control 73; viability (ATP), % of control 86.2.
After knock-down of Lrrc27 #1, the screen gave GFP, % of control 79.6; viability (ATP), % of control 87.3.
For Lrrc27 #2, the entry reads GFP, % of control 77.1; viability (ATP), % of control 59.9.
After knock-down of Lrrc27 #3 the results were GFP, % of control 74; viability (ATP), % of control 61.3.
Against Rnf152 #1 the deposit lists GFP, % of control 101; viability (ATP), % of control 82.5.
For Rnf152 #2 the deposit lists GFP, % of control 82.2; viability (ATP), % of control 74.4.
With knock-down of Rnf152 #3, the record shows GFP, % of control 129 (active); viability (ATP), % of control 111.
For Dpy19l1 #1, the entry reads GFP, % of control 77.5; viability (ATP), % of control 75.5.
With knock-down of Dpy19l1 #2 the results were GFP, % of control 78.5; viability (ATP), % of control 99.2.
Silencing of Dpy19l1 #3 resulted in: GFP, % of control 133 (active); viability (ATP), % of control 82.7.
Against Ankrd40 #1, the entry reads GFP, % of control 106; viability (ATP), % of control 48.5.
For Ankrd40 #2, the values are GFP, % of control 57.2; viability (ATP), % of control 48.6.
Ankrd40 #3 gave GFP, % of control 75.3; viability (ATP), % of control 95.6.
Neo1 #1 showed GFP, % of control 55.4; viability (ATP), % of control 81.
For Neo1 #2, the values are GFP, % of control 102; viability (ATP), % of control 78.8.
Adam26a #1 showed GFP, % of control 75; viability (ATP), % of control 92.9.
Adam26a #2 scored GFP, % of control 64.2; viability (ATP), % of control 71.2.
Adam26a #3 showed GFP, % of control 59.1; viability (ATP), % of control 84.5.
